# Experimental data published in the supplement of paper PMC10663445.
# Counter-ions that a name gives are not always drawn. The list shows a part of the results. Single values are uncertain, as repeats are few or missing.
# Tested on: hsa-miR-132-3p
# Assay: miR-132-3p level in NGN2-iNs after compound treatment (TMM-normalised, ComBat batch-corrected) (batch-corrected normalised expression (arbitrary units)); higher = higher miR-132-3p expression
# Details: 10 µM; 24 h; human iPSC-derived NGN2 neurons (BR43)
row,Compound,miR-132-3p level in NGN2-iNs
1,CC(C(=O)O)c1ccc2c(c1)CC(=O)c1ccccc1S2 (stereo not given) [Zaltoprofen],-1.51
2,Oc1cc2c(cc1O)[C@@H]1c3ccc(O)c(O)c3OC[C@]1(O)C2 [Hematoxylin],-0.85
3,Cc1nc(-c2ccc(OCC(C)C)c(C#N)c2)sc1C(=O)O [Febuxostat],-0.302
4,Cc1nc(Nc2ncc(C(=O)Nc3c(C)cccc3Cl)s2)cc(N2CCN(CCO)CC2)n1 [Dasatinib],0.505
5,CCN1CCN(Cc2ccc(-c3cc4c(N[C@H](C)c5ccccc5)ncnc4[nH]3)cc2)CC1,0.667
6,CCOC(=O)c1c(CSc2ccccc2)n(C)c2cc(Br)c(O)c(CN(C)C)c12 [Arbidol HCl],0.625
7,CCCCN1CCCCC1C(=O)Nc1c(C)cccc1C (stereo not given) [Bupivacaine HCl],1.06
8,C[C@H]1O[C@@H](Oc2c(-c3cc(O)c(O)c(O)c3)oc3cc(O)cc(O)c3c2=O)[C@@H](O)[C@@H](O)[C@@H]1O [Myricitrin],-0.383
9,Cc1ccc2c(=O)c3cccc(CC(=O)O)c3oc2c1C [Vadimezan (ASA404)],-0.71
10,Cc1cc(C)c(S(=O)(=O)n2cc(C)cc2C)c(C)c1,-0.839
11,O=C(O)[C@H]1O[C@@H](Oc2cc3oc(-c4ccccc4)cc(=O)c3c(O)c2O)[C@H](O)[C@@H](O)[C@@H]1O [Baicalin],-0.102
12,O=C1C(=O)c2ccccc2C(O)=C1C1CCC(c2ccc(Cl)cc2)CC1 (stereo not given) [Atovaquone],-1.11
13,c1cncc(CN2CCC(n3ncc4c(N5CCOCC5)nc(-c5ccc6[nH]ccc6c5)nc43)CC2)c1,-0.811
14,O=c1[nH]cnc2c1ncn2[C@@H]1O[C@H](CO)[C@@H](O)[C@H]1O [Inosine],0.401
15,O=C1NC(=O)/C(=C/c2ccc3c(c2)OC(F)(F)O3)S1,0.691
16,Nc1ccc(C(=O)Nc2cccc(-c3nc(N4CCOCC4)c4oc5ncccc5c4n3)c2)cn1,-0.0515
17,COc1cc(C(C)=O)ccc1O [Apocynin (NSC 2146)],0.771
18,O=C(CCCCCCC(=O)Nc1ccc([C@H]2O[C@@H](CSc3nc(-c4ccccc4)c(-c4ccccc4)o3)C[C@@H](c3ccc(CO)cc3)O2)cc1)NO [Tubacin],0.00216
19,CN(Cc1cnc2nc(N)nc(N)c2n1)c1ccc(C(=O)N[C@@H](CCC(=O)O)C(=O)O)cc1 [Methotrexate],-2.84
20,CCOC(=O)c1ccc(N)cc1 [Benzocaine],0.695

# Taken from above.
# For miR-132-3p level in NGN2-iNs, CCOC(=O)c1c(CSc2ccccc2)n(C)c2cc(Br)c(O)c(CN(C)C)c12 [Arbidol HCl] is listed with 0.625
# For miR-132-3p level in NGN2-iNs, CCOC(=O)c1ccc(N)cc1 [Benzocaine] is listed with 0.695

# Further structures

row,Compound,miR-132-3p level in NGN2-iNs
1,CCN(CC)CCOC(=O)C(c1ccccc1)c1ccccc1 [Adiphenine HCl],1.2
2,COc1cc(NC(C)CCCN)c2ncccc2c1 (stereo not given) [Primaquine Diphosphate],-0.0699
3,Cc1ccc([N+](=O)[O-])cc1S(=O)(=O)N(C)/N=C/c1cnc2ccc(Br)cn12,-2.85
4,NC(N)=Nc1nc(CSCC/C(N)=N/S(N)(=O)=O)cs1 [Famotidine],-2.29
5,CC/C(=C(/CC)c1ccc(O)cc1)c1ccc(O)cc1 [Diethylstilbestrol],-0.17
6,CC1=C(/C=C/C(C)=C/C=C/C(C)=C\C(=O)O)C(C)(C)CCC1 [Isotretinoin],0.202
7,COc1cc(OC)c(/C=C/S(=O)(=O)Cc2ccc(OC)c(NCC(=O)O)c2)c(OC)c1,2.76
8,OC(CN1CCN(c2cccc(Cl)c2)CC1)C(c1ccccc1)c1ccccc1 (stereo not given),-1.31
9,Cc1ccc2nc(NC(=O)CSc3nc4c(c(=O)n3-c3ccccc3)SCC4)sc2c1,-1.06
10,Cn1cc(-c2ccc3c(c2)CCN3C(=O)Cc2cccc(C(F)(F)F)c2)c2c(N)ncnc21,0.00914
11,O=C(/C=C/c1ccc(O)c(O)c1)O[C@@H]1C[C@](O)(C(=O)O)C[C@@H](O)[C@H]1O [Chlorogenic Acid],-0.0394
12,C[C@@H]1COC(Nc2ccc3ncnc(Nc4ccc(OCc5nccs5)c(Cl)c4)c3c2)=N1 [Varlitinib],0.29
13,CCN(CC)CCCCNc1ncc2cc(-c3cc(OC)cc(OC)c3)c(NC(=O)NC(C)(C)C)nc2n1,0.328
14,CC[C@@H](CO)NCCN[C@@H](CC)CO [Ethambutol 2HCl],-2.13
15,C=CS(=O)(=O)NC1CCN(C(=O)CNc2cc(I)c(Cl)cc2OC)CC1 [K-Ras(G12C) inhibitor 9],-0.822
16,CCCOc1ccc(C(=O)OCCN(CC)CC)cc1N [Proparacaine HCl],-0.896
17,CN1C2CCC1CC(OC(=O)C(O)c1ccccc1)C2 (stereo not given) [Homatropine Bromide],0.0788
18,NC(=O)c1cccc(N)c1 [3-Aminobenzamide],-1.52
19,Cc1ccc(-n2nc(C(C)(C)C)cc2NC(=O)Nc2ccc(OCCN3CCOCC3)c3ccccc23)cc1 [Doramapimod (BIRB 796)],-0.157
20,Cc1cc(OCc2nnc(SC3CCCC3)n2-c2cccnc2)ccc1-c1ccc(S(C)(=O)=O)cc1,-0.894
